In the supplement of paper PMC11006884:
This is a selection; strong and weak results do not stand in their true shares.

Sequences of proteins named here, by UniProt entry; tags and fusion partners are left off. A change or cut given only in a name is not applied to a line headed by its entry.
UniProt P31939: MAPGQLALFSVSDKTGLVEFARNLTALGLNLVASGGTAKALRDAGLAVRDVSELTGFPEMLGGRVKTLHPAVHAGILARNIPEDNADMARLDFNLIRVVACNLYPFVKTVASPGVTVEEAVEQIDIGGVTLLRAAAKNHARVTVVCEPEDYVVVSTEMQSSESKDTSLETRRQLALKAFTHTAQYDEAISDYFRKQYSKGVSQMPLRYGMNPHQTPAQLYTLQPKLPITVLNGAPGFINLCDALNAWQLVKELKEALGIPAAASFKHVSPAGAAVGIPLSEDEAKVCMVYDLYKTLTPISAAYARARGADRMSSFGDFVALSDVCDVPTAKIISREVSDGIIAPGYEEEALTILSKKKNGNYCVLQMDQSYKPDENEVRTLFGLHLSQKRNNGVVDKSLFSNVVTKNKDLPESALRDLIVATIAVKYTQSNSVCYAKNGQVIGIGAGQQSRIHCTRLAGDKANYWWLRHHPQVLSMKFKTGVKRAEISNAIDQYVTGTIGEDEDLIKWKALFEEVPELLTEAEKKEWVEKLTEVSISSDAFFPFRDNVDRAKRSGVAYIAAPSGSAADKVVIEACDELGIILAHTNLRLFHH
UniProt P38646: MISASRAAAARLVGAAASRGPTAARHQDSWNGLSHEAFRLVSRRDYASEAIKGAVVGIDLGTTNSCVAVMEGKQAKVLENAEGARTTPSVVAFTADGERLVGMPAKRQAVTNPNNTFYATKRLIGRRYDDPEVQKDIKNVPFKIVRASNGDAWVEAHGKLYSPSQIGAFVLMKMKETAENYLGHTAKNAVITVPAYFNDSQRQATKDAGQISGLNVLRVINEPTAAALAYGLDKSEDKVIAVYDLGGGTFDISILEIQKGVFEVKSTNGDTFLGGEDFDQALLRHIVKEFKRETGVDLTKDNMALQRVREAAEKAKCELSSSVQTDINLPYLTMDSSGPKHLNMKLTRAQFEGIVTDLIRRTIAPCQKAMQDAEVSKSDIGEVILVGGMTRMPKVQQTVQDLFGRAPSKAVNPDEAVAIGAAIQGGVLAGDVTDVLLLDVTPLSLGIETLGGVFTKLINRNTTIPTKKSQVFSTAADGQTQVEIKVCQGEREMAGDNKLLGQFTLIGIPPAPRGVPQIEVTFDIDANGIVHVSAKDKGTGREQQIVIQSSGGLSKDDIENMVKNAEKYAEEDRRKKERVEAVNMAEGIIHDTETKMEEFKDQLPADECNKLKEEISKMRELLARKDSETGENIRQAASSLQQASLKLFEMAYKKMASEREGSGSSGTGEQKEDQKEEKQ
UniProt P35221: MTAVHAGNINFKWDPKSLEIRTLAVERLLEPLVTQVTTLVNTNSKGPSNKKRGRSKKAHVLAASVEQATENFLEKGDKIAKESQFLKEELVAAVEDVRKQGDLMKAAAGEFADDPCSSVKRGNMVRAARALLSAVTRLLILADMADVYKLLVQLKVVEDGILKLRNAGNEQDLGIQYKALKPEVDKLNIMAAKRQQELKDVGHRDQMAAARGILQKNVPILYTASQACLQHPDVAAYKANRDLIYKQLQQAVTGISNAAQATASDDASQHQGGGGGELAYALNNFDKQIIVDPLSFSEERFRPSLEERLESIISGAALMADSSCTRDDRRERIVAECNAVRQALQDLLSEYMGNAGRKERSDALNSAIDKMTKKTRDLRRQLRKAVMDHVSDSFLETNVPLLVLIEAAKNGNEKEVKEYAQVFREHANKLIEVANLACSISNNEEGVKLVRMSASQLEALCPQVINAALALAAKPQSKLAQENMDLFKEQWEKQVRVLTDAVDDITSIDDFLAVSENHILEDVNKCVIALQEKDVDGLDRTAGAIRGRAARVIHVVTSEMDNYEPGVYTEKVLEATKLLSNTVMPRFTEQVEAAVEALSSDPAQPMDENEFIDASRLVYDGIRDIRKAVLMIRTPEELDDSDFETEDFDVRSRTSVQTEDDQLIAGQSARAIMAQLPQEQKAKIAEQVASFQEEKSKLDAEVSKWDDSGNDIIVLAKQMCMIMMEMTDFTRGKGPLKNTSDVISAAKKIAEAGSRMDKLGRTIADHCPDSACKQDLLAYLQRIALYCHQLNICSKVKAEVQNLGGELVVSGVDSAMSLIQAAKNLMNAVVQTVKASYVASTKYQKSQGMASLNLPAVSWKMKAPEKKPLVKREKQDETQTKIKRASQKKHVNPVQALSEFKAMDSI
UniProt P30405: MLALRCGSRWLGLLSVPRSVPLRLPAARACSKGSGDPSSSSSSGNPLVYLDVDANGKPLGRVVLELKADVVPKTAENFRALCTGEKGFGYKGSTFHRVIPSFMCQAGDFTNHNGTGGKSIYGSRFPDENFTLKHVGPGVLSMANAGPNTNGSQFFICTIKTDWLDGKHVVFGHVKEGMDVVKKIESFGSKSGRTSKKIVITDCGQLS
UniProt P41212: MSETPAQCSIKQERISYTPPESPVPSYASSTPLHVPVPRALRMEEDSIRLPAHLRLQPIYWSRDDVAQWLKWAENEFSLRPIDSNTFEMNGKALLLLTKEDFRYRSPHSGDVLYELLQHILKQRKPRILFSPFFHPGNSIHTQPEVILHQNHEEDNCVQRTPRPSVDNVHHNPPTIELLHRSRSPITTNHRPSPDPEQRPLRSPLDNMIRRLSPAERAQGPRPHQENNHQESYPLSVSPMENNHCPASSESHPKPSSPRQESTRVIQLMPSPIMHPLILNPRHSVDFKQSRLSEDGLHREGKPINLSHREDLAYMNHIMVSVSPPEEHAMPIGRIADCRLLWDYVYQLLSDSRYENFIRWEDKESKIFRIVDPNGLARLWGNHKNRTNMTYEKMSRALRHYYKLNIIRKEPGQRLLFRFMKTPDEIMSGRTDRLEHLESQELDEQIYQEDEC
UniProt P42765: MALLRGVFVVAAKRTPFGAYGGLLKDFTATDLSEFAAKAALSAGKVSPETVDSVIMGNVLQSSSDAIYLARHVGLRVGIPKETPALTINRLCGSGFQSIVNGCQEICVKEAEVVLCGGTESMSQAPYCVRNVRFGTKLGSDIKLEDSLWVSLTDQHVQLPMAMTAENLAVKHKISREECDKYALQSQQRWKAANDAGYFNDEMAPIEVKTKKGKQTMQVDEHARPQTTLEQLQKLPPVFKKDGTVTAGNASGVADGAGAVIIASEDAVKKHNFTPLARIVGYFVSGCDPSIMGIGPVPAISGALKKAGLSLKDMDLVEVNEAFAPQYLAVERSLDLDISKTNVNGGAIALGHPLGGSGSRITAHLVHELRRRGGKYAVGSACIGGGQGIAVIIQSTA
UniProt P33240: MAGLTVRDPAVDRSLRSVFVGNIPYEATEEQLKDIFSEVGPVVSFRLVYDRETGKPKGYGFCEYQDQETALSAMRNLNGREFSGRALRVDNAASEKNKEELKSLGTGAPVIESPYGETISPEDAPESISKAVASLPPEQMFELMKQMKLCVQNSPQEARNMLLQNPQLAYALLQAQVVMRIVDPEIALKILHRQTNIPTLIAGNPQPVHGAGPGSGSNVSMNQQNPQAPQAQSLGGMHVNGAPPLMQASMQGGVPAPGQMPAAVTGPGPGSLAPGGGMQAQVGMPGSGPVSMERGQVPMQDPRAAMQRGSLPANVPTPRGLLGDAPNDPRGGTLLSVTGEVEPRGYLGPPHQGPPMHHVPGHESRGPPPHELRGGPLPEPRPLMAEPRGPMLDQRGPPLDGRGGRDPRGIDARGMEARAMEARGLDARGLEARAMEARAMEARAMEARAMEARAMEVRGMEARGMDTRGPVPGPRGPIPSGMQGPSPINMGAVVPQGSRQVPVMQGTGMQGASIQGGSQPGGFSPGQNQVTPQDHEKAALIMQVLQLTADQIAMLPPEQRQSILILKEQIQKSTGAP
UniProt P38432, whole entry, looked up: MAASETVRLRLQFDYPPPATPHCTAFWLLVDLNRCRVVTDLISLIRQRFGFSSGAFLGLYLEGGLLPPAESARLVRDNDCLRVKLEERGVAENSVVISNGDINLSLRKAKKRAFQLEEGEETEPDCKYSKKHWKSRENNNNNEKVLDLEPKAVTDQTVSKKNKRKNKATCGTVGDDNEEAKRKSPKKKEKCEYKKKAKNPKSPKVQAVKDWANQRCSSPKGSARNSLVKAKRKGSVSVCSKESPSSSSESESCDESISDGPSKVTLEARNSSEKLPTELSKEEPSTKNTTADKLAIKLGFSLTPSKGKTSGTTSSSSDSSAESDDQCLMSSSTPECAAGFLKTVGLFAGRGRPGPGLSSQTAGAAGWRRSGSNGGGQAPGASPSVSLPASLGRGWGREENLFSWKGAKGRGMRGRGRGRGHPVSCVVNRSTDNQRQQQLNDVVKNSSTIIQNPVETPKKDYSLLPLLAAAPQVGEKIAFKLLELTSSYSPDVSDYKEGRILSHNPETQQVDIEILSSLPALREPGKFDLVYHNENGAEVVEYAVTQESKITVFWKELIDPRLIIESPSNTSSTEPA
UniProt P41252: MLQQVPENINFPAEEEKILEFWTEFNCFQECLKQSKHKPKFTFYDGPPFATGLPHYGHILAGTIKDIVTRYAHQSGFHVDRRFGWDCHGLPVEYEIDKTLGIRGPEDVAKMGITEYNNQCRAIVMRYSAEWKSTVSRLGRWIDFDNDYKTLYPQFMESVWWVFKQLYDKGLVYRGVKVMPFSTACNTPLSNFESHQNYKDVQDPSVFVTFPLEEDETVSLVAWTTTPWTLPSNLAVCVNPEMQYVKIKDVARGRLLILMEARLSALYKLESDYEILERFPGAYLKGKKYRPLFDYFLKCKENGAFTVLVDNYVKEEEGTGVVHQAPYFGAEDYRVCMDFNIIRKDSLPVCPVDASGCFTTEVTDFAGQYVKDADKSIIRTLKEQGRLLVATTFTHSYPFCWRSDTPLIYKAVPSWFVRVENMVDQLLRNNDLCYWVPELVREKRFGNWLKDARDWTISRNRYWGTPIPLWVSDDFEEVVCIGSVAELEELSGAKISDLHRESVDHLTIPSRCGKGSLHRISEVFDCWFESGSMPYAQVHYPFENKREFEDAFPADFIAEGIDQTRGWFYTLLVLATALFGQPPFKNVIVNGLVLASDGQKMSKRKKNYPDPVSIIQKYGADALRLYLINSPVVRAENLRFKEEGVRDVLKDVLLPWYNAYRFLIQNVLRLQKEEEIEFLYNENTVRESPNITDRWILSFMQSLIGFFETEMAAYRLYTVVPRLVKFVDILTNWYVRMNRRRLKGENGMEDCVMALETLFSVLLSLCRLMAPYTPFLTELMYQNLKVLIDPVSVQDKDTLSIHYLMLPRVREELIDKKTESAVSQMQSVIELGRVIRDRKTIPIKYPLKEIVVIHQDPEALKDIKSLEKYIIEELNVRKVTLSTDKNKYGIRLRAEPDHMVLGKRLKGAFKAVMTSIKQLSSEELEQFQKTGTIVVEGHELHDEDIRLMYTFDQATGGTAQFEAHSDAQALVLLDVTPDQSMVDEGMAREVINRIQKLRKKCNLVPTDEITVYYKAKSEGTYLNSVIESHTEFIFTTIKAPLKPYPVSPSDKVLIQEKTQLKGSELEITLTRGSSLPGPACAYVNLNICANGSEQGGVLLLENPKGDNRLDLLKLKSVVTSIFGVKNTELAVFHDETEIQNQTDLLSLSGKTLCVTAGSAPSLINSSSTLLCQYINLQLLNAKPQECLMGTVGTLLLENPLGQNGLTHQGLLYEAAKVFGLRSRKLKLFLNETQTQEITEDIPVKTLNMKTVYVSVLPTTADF
UniProt P36969, whole entry, looked up: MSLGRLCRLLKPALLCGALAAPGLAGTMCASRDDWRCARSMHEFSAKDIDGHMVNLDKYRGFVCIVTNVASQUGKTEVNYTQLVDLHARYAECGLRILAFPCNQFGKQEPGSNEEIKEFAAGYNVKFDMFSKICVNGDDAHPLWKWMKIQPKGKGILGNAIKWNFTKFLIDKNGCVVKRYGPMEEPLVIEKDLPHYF
UniProt P31040: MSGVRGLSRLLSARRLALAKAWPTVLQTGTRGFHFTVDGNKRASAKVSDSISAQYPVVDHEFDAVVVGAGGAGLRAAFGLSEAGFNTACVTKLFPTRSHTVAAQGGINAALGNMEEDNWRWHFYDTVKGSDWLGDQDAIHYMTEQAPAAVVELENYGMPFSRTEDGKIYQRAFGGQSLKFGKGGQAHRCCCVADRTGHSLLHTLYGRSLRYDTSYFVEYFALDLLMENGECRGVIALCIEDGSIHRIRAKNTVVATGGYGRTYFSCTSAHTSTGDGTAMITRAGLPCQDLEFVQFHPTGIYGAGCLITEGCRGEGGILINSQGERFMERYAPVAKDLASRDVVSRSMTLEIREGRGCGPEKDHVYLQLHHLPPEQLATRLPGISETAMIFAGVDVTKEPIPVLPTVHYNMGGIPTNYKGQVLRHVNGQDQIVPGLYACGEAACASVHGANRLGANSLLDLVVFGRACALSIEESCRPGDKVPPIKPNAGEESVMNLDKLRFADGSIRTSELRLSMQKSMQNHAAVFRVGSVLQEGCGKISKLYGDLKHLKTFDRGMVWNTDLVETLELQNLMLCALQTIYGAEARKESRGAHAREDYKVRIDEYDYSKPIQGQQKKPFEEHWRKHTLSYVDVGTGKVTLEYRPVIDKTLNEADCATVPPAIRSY

Compound: COC(=O)C#Cc1ccccc1 [methyl 3-phenylpropiolate]
Test: log2 ratio of iodoacetamide-alkyne labeling of the cysteine site, DMSO over compound (competition); higher = stronger covalent engagement of the cysteine by the compound, active = 1 or more
Details: 500 µM; treatment time 1 h; system: HEK293T cell lysate
Summary of the method: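 Electrophile (500 µM) or vehicle was added to HEK293T lysate (2 mg/mL) for 1 h at ambient temperature before iodoacetamide alkyne labelling (1 h) and click coupling to sCIP-TMT reagents. After pooling, overnight trypsin digestion at 37 °C, streptavidin enrichment and acid elution, peptides were measured by Orbitrap Eclipse LC-MS/MS with FAIMS and quantified in FragPipe. Each cysteine's log2 competition ratio compares mean control-channel with mean compound-channel reporter intensity, control over compound. Data came from duplicate channels across three replicates, excluding cysteines quantified in only one replicate.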

Target	log2 ratio of iodoacetamide-alkyne labeling
ATIC C363 (UniProt P31939)	inactive: 0.3
POLR2B C1093 (UniProt P30876)	inactive: 0.608
CCT6A C282 (UniProt P40227)	inactive: 0.13
MCM5 C219 (UniProt P33992)	active: 1.34
CPOX C127 (UniProt P36551)	inactive: 0.347
RFC1 C607 (UniProt P35251)	inactive: 0.672
HSPA9 C366 (UniProt P38646)	inactive: 0.191
ABL2 C999 (UniProt P42684)	inactive: 0.219
CTNNA1 C324 (UniProt P35221)	inactive: 0.0149
UniProt P40855_C128	inactive: 0.285
FUS C433 (UniProt P35637)	inactive: -0.139
PPIF C104 (UniProt P30405)	inactive: 0.467
PPP2R1A C390 (UniProt P30153)	inactive: 0.254
ETV6 C8 (UniProt P41212)	inactive: 0.678
RPL9 C134 (UniProt P32969)	inactive: 0.0357
TTK C229 (UniProt P33981)	inactive: 0.945
HNRNPH1 C290 (UniProt P31943)	inactive: -0.0472
ACAA2 C179 (UniProt P42765)	inactive: 0.624
BSG C242 (UniProt P35613)	inactive: 0.215

Target	log2 ratio of iodoacetamide-alkyne labeling
CSTF2 C150 (UniProt P33240)	inactive: 0.541
COIL C126 (UniProt P38432)	inactive: 0.729
HSPA4 C376 (UniProt P34932)	inactive: -0.31
CCT6A C406 (UniProt P40227)	inactive: 0.00195
EPS15 C657 (UniProt P42566)	inactive: 0.516
MATR3 C806 (UniProt P43243)	inactive: 0.0964
PPP1CC C62 (UniProt P36873)	inactive: -0.125
IARS C1001 (UniProt P41252)	inactive: 0.597
RPL3 C253 (UniProt P39023)	inactive: 0.582
ALDH1B1 C179 (UniProt P30837)	inactive: 0.211
FDFT1 C374 (UniProt P37268)	inactive: 0.541
KIF5B C174 (UniProt P33176)	inactive: 0.165
KIF5B C858 (UniProt P33176)	inactive: 0.167
GPX4 C93 (UniProt P36969)	inactive: 0.0252
IARS C433 (UniProt P41252)	inactive: -0.0103
SDHA C266 (UniProt P31040)	inactive: 0.0962
IARS C350 (UniProt P41252)	inactive: 0.0304
SDHA C305 (UniProt P31040)	inactive: 0.021

Part of the list above, with each value named:
IARS C350 (UniProt P41252)
  log2 ratio of iodoacetamide-alkyne labeling: inactive: 0.0304
SDHA C305 (UniProt P31040)
  log2 ratio of iodoacetamide-alkyne labeling: inactive: 0.021
